Here are results for four molecules from PMC12016516.

The chains behind the UniProt entries cited, without tags or fusion partners. Where a name states a change or a piece, a line headed by the entry shows the natural chain unless it says otherwise.
UniProt Q5JE61: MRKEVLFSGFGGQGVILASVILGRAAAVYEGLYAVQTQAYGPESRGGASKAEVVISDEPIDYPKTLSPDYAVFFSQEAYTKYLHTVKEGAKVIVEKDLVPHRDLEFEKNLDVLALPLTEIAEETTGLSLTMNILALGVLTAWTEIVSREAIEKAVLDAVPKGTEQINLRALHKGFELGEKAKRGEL

Read-outs that look alike come from different tables or passages of the source. These are yes or no findings as the source states them, for the method shown. In cells and extracts the contact can be indirect. These calls come from enrichment with a bait or labelling near it, and not all partners need be listed. For part of these data: No binding means not detected with the bait.

The target in assay [1] is T1, 2-Oxoacid:ferredoxin oxidoreductases, β2 subunit (Thermococcus kodakarensis) (UniProt Q5JE71).
T1 sequence: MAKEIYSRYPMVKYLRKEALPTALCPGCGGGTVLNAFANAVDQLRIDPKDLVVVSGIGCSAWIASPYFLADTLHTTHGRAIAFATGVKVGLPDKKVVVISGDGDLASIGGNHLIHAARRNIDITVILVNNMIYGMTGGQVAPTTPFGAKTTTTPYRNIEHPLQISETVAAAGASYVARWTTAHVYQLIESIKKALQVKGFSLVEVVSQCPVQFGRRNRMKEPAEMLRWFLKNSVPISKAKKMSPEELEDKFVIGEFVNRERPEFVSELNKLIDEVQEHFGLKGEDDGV
The experiment in a line: affinity purification with mass spectrometry; HA- and His6-tagged bait made from its native locus, captured from clarified T. kodakarensis lysate on a Ni2+-charged chelating column (buffer A: 10 mM Tris HCl pH 8.0, 500 mM NaCl, 10% glycerol), eluted with an imidazole gradient; pooled fractions identified by MuDPIT LC-MS/MS and compared with the parental strain TS559 (P < 0.05, log2 fold change ≥ 2); cells grown at 85°C with (+S˚) or without (–S˚) elemental sulfur.

Assay [2] deals with 2-Oxoacid:ferredoxin oxidoreductase, γ1 subunit (Thermococcus kodakarensis) (UniProt Q5JE61). The assay is described as above.
The target of assay [3] is T2, 2-Oxoacid:ferredoxin oxidoreductase, α2 subunit (Thermococcus kodakarensis) (UniProt Q5JE85).
T2 sequence: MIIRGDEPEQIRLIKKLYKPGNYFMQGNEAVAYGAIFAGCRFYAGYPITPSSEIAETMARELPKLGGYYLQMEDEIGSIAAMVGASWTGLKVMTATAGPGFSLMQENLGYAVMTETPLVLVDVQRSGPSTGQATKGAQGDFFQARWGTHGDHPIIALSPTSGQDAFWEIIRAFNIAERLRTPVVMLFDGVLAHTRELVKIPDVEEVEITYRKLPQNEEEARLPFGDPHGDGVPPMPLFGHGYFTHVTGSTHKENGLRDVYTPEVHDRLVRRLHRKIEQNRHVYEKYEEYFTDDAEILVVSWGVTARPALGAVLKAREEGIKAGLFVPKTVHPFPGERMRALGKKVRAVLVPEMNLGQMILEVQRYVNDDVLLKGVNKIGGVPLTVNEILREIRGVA
The assay is described as above.

Assay [4] concerns the target 2-Oxoacid:ferredoxin oxidoreductase, γ1 subunit (Thermococcus kodakarensis) (UniProt Q5JE61). As to the kind of experiment: affinity purification with mass spectrometry; as a1, only the purifications from cells grown with elemental sulfur (+S˚).
Assay [5] concerns the target T3, [4Fe-4S] cluster-binding protein associated with FDH, FDHγ4 (Thermococcus kodakarensis) (UniProt Q5JHV8).
T3 sequence: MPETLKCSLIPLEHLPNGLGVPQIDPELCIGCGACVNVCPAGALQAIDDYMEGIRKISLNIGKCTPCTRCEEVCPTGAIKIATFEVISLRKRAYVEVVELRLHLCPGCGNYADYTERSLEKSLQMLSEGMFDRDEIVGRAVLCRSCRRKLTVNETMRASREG
The experiment in a line: affinity purification with mass spectrometry; HA- and His6-tagged bait made from its native locus, captured from clarified T. kodakarensis lysate on a Ni2+-charged chelating column (buffer A: 10 mM Tris HCl pH 8.0, 500 mM NaCl, 10% glycerol), eluted with an imidazole gradient; pooled fractions identified by MuDPIT LC-MS/MS and compared with the parental strain TS559 (P < 0.05, log2 fold change ≥ 2); cells grown at 85°C with (+S˚) or without (–S˚) elemental sulfur.

Assay [6] deals with T4, [4Fe-4S] cluster-binding protein associated with FDH, FDHγ2 (Thermococcus kodakarensis) (UniProt Q5JHW1).
T4 sequence: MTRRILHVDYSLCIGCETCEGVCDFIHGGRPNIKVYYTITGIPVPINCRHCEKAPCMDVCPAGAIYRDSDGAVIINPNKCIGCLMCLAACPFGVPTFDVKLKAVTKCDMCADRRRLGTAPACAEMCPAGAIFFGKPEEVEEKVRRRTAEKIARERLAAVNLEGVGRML
Described as above.

In assay [7] the target is T3, [4Fe-4S] cluster-binding protein associated with FDH, FDHγ4 (Thermococcus kodakarensis). As to the kind of experiment: affinity purification with mass spectrometry; as a1, only the purifications from cells grown without elemental sulfur (–S˚).
Assay [8] concerns the target T5, Membrane-bound sulfane reductase, NiFe-hydrogenase large subunit 2, MBS-L (Thermococcus kodakarensis) (UniProt Q5JGG2).
T5 sequence: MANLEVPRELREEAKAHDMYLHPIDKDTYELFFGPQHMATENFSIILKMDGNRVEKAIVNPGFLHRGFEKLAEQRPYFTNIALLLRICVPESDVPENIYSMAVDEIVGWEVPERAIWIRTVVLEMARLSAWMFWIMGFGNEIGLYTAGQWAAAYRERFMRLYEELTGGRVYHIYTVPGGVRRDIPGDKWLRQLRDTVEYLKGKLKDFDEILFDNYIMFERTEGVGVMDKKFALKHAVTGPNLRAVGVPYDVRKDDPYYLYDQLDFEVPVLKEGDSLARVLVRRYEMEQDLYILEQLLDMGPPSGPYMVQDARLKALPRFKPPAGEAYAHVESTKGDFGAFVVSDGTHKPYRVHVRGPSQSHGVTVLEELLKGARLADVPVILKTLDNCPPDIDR
The experiment in a line: affinity purification with mass spectrometry; HA- and His6-tagged bait made from its native locus, captured from clarified T. kodakarensis lysate on a Ni2+-charged chelating column (buffer A: 10 mM Tris HCl pH 8.0, 500 mM NaCl, 10% glycerol), eluted with an imidazole gradient; pooled fractions identified by MuDPIT LC-MS/MS and compared with the parental strain TS559 (P < 0.05, log2 fold change ≥ 2); cells grown at 85°C with (+S˚) or without (–S˚) elemental sulfur.

The target in assay [9] is T1, 2-Oxoacid:ferredoxin oxidoreductases, β2 subunit (Thermococcus kodakarensis). The description is as above. This is another data set of the same source.
The target in assay [10] is 2-Oxoacid:ferredoxin oxidoreductase, γ1 subunit (Thermococcus kodakarensis) (UniProt Q5JE61). Described as above. This is another data set of the same source.
Assay [11] deals with T2, 2-Oxoacid:ferredoxin oxidoreductase, α2 subunit (Thermococcus kodakarensis). The description is as above. This is another data set of the same source.

B1: OGORα1 (TK1125) (protein, UniProt Q5JE59 1-382)
chain: MRYPFPVGKADFIQGDEAIARAAILAGCRFYAGYPITPASEIFEAMALYMPLVDGVSIQMEDEIASIAAIIGASWAGAKAMTATSGPGFSLMQENIGYAVMTETPIVVVDVQRGGPSTGQPTLAAQGDIMQSIWGTHGDHTLIVLSPSTVQEAFDFTIRAFNLAEKYRTPVVLLTDAEVAHMRERVYIPNPDDIELVYRKLPQNEEEAKLPFGDPHGDGIPPMPIFGKGYRTYVTGLTHDERGRPKTVDAEVHERLIKRIIGKIENNKHDIISYEKFELDDADVAIVSTGIVSRSAIRAVKILREKGIKAGLLKLNTIWPFDFDMMEELAEQVKKIFVPEMNMGQLYHLVKEGANGKAEVELISKIGGEVHTPMEIVERVVG
Take B1: the binding entry in assay [1] is reported as “no binding”; in assay [2] it was “binds”; in [3], “no binding”.

B2: 2-Oxoacid:ferredoxin oxidoreductases, β2 subunit (protein, UniProt Q5JE71 1-288)
chain: MAKEIYSRYPMVKYLRKEALPTALCPGCGGGTVLNAFANAVDQLRIDPKDLVVVSGIGCSAWIASPYFLADTLHTTHGRAIAFATGVKVGLPDKKVVVISGDGDLASIGGNHLIHAARRNIDITVILVNNMIYGMTGGQVAPTTPFGAKTTTTPYRNIEHPLQISETVAAAGASYVARWTTAHVYQLIESIKKALQVKGFSLVEVVSQCPVQFGRRNRMKEPAEMLRWFLKNSVPISKAKKMSPEELEDKFVIGEFVNRERPEFVSELNKLIDEVQEHFGLKGEDDGV
B2: the binding result is listed as “binds” in assay [2] and “no binding (only cells grown with S˚)” in assay [4].

B3: Formate dehydrogenase, [4Fe-4S] cluster-binding protein, FDHγ3 (protein, UniProt Q5JHV9 1-166)
chain: MARKTVFIDFSKCIECRACEVACEREHNGRSFINVFEWQEMAAMALNCRHCEKAPCLEVCPTNALYRDGDGAVLLAPQKCIGCLMCGIVCPFGIPELDSLDKIMMKCDLCAHRRAEGKLPACVETCPTDALLFGDFNDIQRMRRQKFTEKAIEIAKSGERIQFRGV
Turning to B3, the results for the binding entry in assay [5], in assay [6] and in assay [7] were “binds”, “binds” and “no binding (only cells grown without S˚)”, respectively.

B4: RBR3 (TK1056) (protein, UniProt Q5JDZ0 1-158)
chain: MNELEALALALEVEKNELKFYLKLARKTTDERARKMFLFLAKEEAEHWDLFEEKFVERLIEKCELPPVDKELAQKLIVEEPETLSEVEAVKIGMEQEKLTWEFYEKAAKEAEHESVRRLFEELAKVEKGHYELLKAQYDSVMQTGIWMDYQDFSLEVD
Turning to B4, the binding entry in assay [8], in [9], in assay [10] and in assay [11] was “binds” in each case.
